Assay results taken from paper PMC5454049.

Biological target: OsPHO2 (Phosphate over accumulator 2) (rice (Oryza sativa L.))
Assay: two-hybrid; Matchmaker Gold system; pGADT7-OsNLA1 in Y187 mated with pGBKT7-OsPHO2 in Y2HGold; growth on DDO/X/A and QDO/X/A plates

binding: binds
B1: OsNLA1 (protein, UniProt Q7XI73 1-321)
chain: MKFAKKYEKYMKGMDEELPGVGLKRLKKLLKKCRSDLQSHENDGSSAGRCPGHCSVCDGSFFPSLLNEMSAVIGCFNEKAKKLLELHLASGFKKYTMWFTSKGHKSHGALIQQGKDLVTYAIINAVAMRKILKKYDKIHYSKQGQEFKAQAQSLHIEILQSPWLCELMAFYMNLRRSKKNNGAMELFGDCSLVFDDDKPTISCNLFDSMRVDISLTCSICLDTVFDPVALSCGHIYCYLCSCSAASVTIVDGLKSAERKSKCPLCRQAGVFPNAVHLDELNMLLSYSCPEYWEKRIQMERVERVRLAKEHWESQCRAFLGM

These are yes or no findings as the source states them, for the method shown. Binding calls can cover weak binding; strength is not graded here.
